Test results from publication PMC7806468.
Results are given in words; binding and its absence hold for the method and conditions named. Binding seen in cells or lysates may run through a third protein.

Sequences of proteins named here, by UniProt entry; tags and fusion partners are left off. A change or cut given only in a name is not applied to a line headed by its entry.
UniProt P34897: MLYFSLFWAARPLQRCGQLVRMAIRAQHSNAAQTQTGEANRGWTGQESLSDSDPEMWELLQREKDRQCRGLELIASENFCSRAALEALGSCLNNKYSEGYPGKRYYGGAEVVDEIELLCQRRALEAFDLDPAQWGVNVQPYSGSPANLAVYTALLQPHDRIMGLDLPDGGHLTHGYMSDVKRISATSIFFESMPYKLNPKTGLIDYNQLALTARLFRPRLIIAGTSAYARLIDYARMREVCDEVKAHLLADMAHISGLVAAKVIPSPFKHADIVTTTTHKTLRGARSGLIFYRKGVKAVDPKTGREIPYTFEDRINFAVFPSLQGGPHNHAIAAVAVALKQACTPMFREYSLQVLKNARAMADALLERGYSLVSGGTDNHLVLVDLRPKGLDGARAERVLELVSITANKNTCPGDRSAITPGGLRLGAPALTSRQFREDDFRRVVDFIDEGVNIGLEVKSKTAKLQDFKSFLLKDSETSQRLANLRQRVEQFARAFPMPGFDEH
UniProt P35222: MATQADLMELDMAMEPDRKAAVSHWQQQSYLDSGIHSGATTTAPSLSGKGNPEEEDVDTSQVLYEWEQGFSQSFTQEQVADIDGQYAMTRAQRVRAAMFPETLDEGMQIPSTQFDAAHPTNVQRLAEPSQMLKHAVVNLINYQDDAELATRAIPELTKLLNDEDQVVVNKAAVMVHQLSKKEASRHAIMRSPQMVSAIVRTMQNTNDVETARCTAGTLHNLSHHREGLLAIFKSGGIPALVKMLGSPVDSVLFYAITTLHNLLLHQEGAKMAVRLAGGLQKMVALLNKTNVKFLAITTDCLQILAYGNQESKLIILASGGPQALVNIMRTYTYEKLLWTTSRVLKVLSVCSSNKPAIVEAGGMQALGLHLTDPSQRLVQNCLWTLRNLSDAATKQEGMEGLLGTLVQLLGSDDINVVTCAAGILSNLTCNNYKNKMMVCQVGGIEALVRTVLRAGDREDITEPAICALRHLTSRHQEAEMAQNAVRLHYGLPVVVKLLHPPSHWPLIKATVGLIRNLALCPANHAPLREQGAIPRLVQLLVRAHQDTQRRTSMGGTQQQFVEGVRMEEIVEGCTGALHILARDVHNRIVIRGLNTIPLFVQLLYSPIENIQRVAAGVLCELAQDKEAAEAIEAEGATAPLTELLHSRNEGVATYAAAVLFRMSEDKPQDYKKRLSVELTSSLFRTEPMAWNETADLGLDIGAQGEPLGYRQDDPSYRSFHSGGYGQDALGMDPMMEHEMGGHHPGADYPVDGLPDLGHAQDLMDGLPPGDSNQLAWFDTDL

Molecular target: Flag-tagged SHMT2 K64R (shRNA-resistant) (human) (UniProt P34897)
Assay: co-IP; stable SHMT2-knockdown HCT116 and DLD-1 cells re-expressing shRNA-resistant Flag-SHMT2α or K64R; immunoprecipitation with the indicated antibodies

Question: β-catenin (from UniProt P35222 1-781) was tested. Which binding did it give?
Answer: no binding
